Experimental findings from PubChem BioAssay AID246 (DTP/NCI, 2004) are described below.

The subject of the assay is BDF1 mice, P1081 chloroleukemia ip, survival T/C. In words: NCI In Vivo Anticancer Drug Screen. Data for tumor model P1081 Chloroleukemia (intraperitoneal) in B6D2F1 (BDF1) mice. The following applies: T/C endpoint: mean survival time, higher T/C = longer survival. How it is done:
The antitumor activity of compounds was measured in mice bearing transplantable tumors. Survival or tumor size were measured and the results are expressed as the measurement made in the treated group (T) divided by the measurement made in the vehicle treated control group (C). The tumor model used in this assay is P1081 Chloroleukemia (intraperitoneal) in B6D2F1 (BDF1) mice

The mark [1] stands for this setting: dose: 50.0 mg/kg/injection, schedule: Q01DX010 (ip), vehicle: saline.
[2] abbreviates: dose: 12.5 mg/kg/injection, schedule: Q01DX010 (ip), vehicle: saline.
[3] abbreviates: dose: 25.0 mg/kg/injection, schedule: Q01DX010 (ip), vehicle: saline.
[4] abbreviates: dose: 6.3 mg/kg/injection, schedule: Q01DX Z (ip), vehicle: carboxymethylcellulose (CMC).
The mark [5] stands for this setting: dose: 1.25 mg/kg/injection, schedule: Q01DX Z (ip), vehicle: other.
Where [6] appears, read: dose: 2.5 mg/kg/injection, schedule: Q01DX Z (ip), vehicle: other.
[7] abbreviates: dose: 400.0 mg/kg/injection, schedule: Q01DX Z (ip), vehicle: carboxymethylcellulose (CMC).
The mark [8] stands for this setting: dose: 150.0 mg/kg/injection, schedule: Q01DX010 (ip), vehicle: saline.

The list does not hold the whole screen: it is rich in T/C values a quarter to a half above the control, in often repeated tests (any T/C) and in doses without a T/C. Further doses and runs are listed elsewhere. T/C gives the treated animals as a percentage of the vehicle group. Some doses have a count of surviving animals in place of a T/C: the source holds a T/C of zero for them, seemingly a mark for toxic or unscored doses. Some doses without a T/C left all or most animals alive at the check, yet need not have been tolerated: survival well below the control is almost never listed, so the zero probably covers shortened survival too. Counts of survivors are from the toxicity check (mostly the fifth day) where no day follows; animals may have died later. Schedule codes are those of the source, read here as Q, the interval in days (D) or hours (H), X, the number of doses. Some schedule codes hold Z or #, which are not explained here. Some entries were tested several times; the results are listed from low to high. For survival time, this PubChem deposit counts one and a half times the control or more as active, and values a quarter to a half above the control carry no call in these data; other NCI protocols may use other cut-offs. Counts like (3×) give the number of equal values in this list. Some T/C values are followed by the survivors on the day toxicity was checked, most often the fifth; without a count, all were alive then.

Take `CCN(CC)CCNc1ccc(C)c2sc3ccccc3c(=O)c12`: the survivor count by setting is: (dose: 0.78 mg/kg/injection, schedule: Q01DX Z (ip), vehicle: methylcellulose (MC)) 6 of 6; (dose: 3.12 mg/kg/injection, schedule: Q01DX Z (ip), vehicle: methylcellulose (MC)) 6 of 6; (dose: 6.25 mg/kg/injection, schedule: Q01DX Z (ip), vehicle: methylcellulose (MC)) 6 of 6; (dose: 12.5 mg/kg/injection, schedule: Q01DX Z (ip), vehicle: methylcellulose (MC)) 6 of 6; (dose: 25.0 mg/kg/injection, schedule: Q01DX Z (ip), vehicle: methylcellulose (MC)) 6 of 6; (dose: 50.0 mg/kg/injection, schedule: Q01DX Z (ip), vehicle: methylcellulose (MC)) 6 of 6. In addition, the survivor count reads like this: (dose: 100.0 mg/kg/injection, schedule: Q01DX Z (ip), vehicle: methylcellulose (MC)) 5 of 6; (dose: 200.0 mg/kg/injection, schedule: Q01DX010 (ip), vehicle: saline) 6 of 6; (dose: 200.0 mg/kg/injection, schedule: Q01DX Z (ip), vehicle: methylcellulose (MC)) 2 of 6. Further, the T/C under setting [1] is 125 % of control.

`NC(=O)N(CCCl)N=O`: the survivor count is, setting by setting: (dose: 2.0 mg/kg/injection, schedule: Q01DX Z (ip), vehicle: carboxymethylcellulose (CMC)) 5 of 6; (dose: 32.0 mg/kg/injection, schedule: Q01DX Z (ip), vehicle: carboxymethylcellulose (CMC)) 6 of 6; (dose: 64.0 mg/kg/injection, schedule: Q01DX Z (ip), vehicle: carboxymethylcellulose (CMC)) 0 of 6.

`O=NN(CCCl)C(=O)NCCCl`: the T/C is 126 % of control (dose: 8.0 mg/kg/injection, schedule: Q01DX Z (ip), vehicle: saline) and 135 % of control under setting [2]. The survivor count runs as follows: (dose: 16.0 mg/kg/injection, schedule: Q01DX Z (ip), vehicle: saline) 6 of 6; under setting [3], 6 of 6.

On to `COS(C)(=O)=O`, for which the T/C under setting [2] is 125 % of control. In addition, the survivor count (dose: 100.0 mg/kg/injection, schedule: Q01DX010 (ip), vehicle: saline) is 6 of 6 and the survivor count (dose: 200.0 mg/kg/injection, schedule: Q01DX Z (ip), vehicle: water) is 0 of 6.

Regarding `C[n+]1c2ccccc2nc2c(N)cc(N)cc21`, the survivor count by setting is: (dose: 0.8 mg/kg/injection, schedule: Q01DX Z (ip), vehicle: carboxymethylcellulose (CMC)) 6 of 6; (dose: 3.1 mg/kg/injection, schedule: Q01DX Z (ip), vehicle: carboxymethylcellulose (CMC)) 6 of 6; under setting [4], 6 of 6; (dose: 50.0 mg/kg/injection, schedule: Q01DX Z (ip), vehicle: carboxymethylcellulose (CMC)) 0 of 6. For the same compound, the T/C under setting [4] was 136 % of control.

Regarding `CN(Cc1cnc2nc(N)nc(N)c2n1)c1ccc(C(=O)N[C@@H](CCC(=O)O)C(=O)O)cc1`, the T/C (dose: 0.12 mg/kg/injection, schedule: Q01DX Z (ip), vehicle: other) is 147 % of control; the T/C (dose: 0.31 mg/kg/injection, schedule: Q01DX Z (ip), vehicle: other) was 125 % of control; the T/C (dose: 0.38 mg/kg/injection, schedule: Q01DX010 (ip), vehicle: other) is 136 and 145 % of control; the T/C (dose: 0.62 mg/kg/injection, schedule: Q01DX Z (ip), vehicle: other) was 132 % of control; the T/C under setting [5] is 115, 119 (2×), 172 % of control; the T/C under setting [6] is 90 [5 of 6 alive] and 99 % of control. The survivor count was 6 of 6 under setting [5]; 6 of 6 under setting [6]; 5 of 6 and 6 of 6 (dose: 5.0 mg/kg/injection, schedule: Q01DX Z (ip), vehicle: other); 6 of 6 (dose: 10.0 mg/kg/injection, schedule: Q01DX Z (ip), vehicle: other).

Regarding `N=[N+]=CC(=O)OCC(N)C(=O)O` (stereo not given), the T/C is, setting by setting: (dose: 1.88 mg/kg/injection, schedule: Q01DX Z (ip), vehicle: saline) 139 % of control; (dose: 2.5 mg/kg/injection, schedule: Q01DX Z (ip), vehicle: saline) 147 % of control; (dose: 3.13 mg/kg/injection, schedule: Q01DX010 (ip), vehicle: saline) 125 and 135 % of control; (dose: 5.0 mg/kg/injection, schedule: Q01DX Z (ip), vehicle: saline) 90, 107, 125, 164 % of control; (dose: 6.25 mg/kg/injection, schedule: Q01DX010 (ip), vehicle: saline) 135 and 140 % of control; (dose: 7.5 mg/kg/injection, schedule: Q01DX Z (ip), vehicle: saline) 148 % of control. Moreover, the T/C by setting is: (dose: 10.0 mg/kg/injection, schedule: Q01DX Z (ip), vehicle: saline) 92, 119 (2×), 170 % of control; under setting [2], 140 % of control. In addition, the survivor count reads like this: (dose: 20.0 mg/kg/injection, schedule: Q01DX Z (ip), vehicle: saline) 6 of 6; (dose: 40.0 mg/kg/injection, schedule: Q01DX Z (ip), vehicle: saline) 6 of 6.

As for `Nc1nc(F)nc2c1ncn2C1OC(CO)C(O)C1O` (stereo not given), the survivor count (dose: 8.0 mg/kg/injection, schedule: Q01DX010 (ip), vehicle: saline) was 6 of 6.

In the case of `Cc1cc2nc3c(=O)[nH]c(=O)nc-3n(CC(O)C(O)C(O)C(O)CO)c2cc1C` (stereo not given), the survivor count (dose: 400.0 mg/kg/injection, schedule: Q01DX010 (ip), vehicle: saline) is given as 7 of 7.

Turning to `CSc1ncnc2nc[nH]c12`, the T/C under setting [3] is 125 % of control and the T/C under setting [1] is 125 % of control. Further, the survivor count is 6 of 6 (dose: 25.0 mg/kg/injection, schedule: Q01DX Z (ip), vehicle: carboxymethylcellulose (CMC)) and 1 of 6 under setting [7].

Turning to `CCCCCCCCCCCCNCCCCCCCCCCCC`, the T/C (dose: 0.95 mg/kg/injection, schedule: Q01DX Z (ip), vehicle: carboxymethylcellulose (CMC)) was 137 % of control. Further, the survivor count (dose: 0.95 mg/kg/injection, schedule: Q01DX Z (ip), vehicle: saline) was 6 of 6; the survivor count (dose: 7.5 mg/kg/injection, schedule: Q01DX Z (ip), vehicle: carboxymethylcellulose (CMC)) is 6 of 6; the survivor count (dose: 15.0 mg/kg/injection, schedule: Q01DX Z (ip), vehicle: carboxymethylcellulose (CMC)) is recorded as 5 of 6; the survivor count (dose: 30.0 mg/kg/injection, schedule: Q01DX Z (ip), vehicle: carboxymethylcellulose (CMC)) is listed as 4 of 6; the survivor count (dose: 60.0 mg/kg/injection, schedule: Q01DX Z (ip), vehicle: carboxymethylcellulose (CMC)) is reported as 0 of 6.

With `O=c1[nH]c(=O)n(C2CC(O)C(CO)O2)cc1Br` (stereo not given), the survivor count (dose: 125.0 mg/kg/injection, schedule: Q01DX Z (ip), vehicle: carboxymethylcellulose (CMC)) was 6 of 6.

With `CS(=O)(=O)OCCCl`, the T/C under setting [8] is 135 % of control. Moreover, the survivor count was 4 of 6 under setting [8]; 1 of 6 and 3 of 6 (dose: 200.0 mg/kg/injection, schedule: Q01DX Z (ip), vehicle: carboxymethylcellulose (CMC)); 0 of 6 under setting [7]; 0 of 6 (dose: 800.0 mg/kg/injection, schedule: Q01DX Z (ip), vehicle: carboxymethylcellulose (CMC)); 0 of 6 (dose: 4000.0 mg/kg/injection, schedule: Q01DX Z (ip), vehicle: carboxymethylcellulose (CMC)).

For the compound `C[C@]12CCC(=O)C=C1CC[C@@H]1[C@@H]2C(=O)C[C@@]2(C)[C@H]1CC[C@]2(O)C(=O)CO`, the survivor count (dose: 400.0 mg/kg/injection, schedule: Q01DX Z (sc), vehicle: steroid suspending solution) is 6 of 6.
